Reference: PubChem BioAssay AID662 (National Center for Advancing Translational Sciences (NCATS), 2007)
The list shows a part of the results. The main result of the screen is listed elsewhere. These columns were measured beside it and carry no call. Compounds called inactive in the main read-out are mostly missing here. Potencies come from curve fits of mixed quality, noted in brackets.

Experiment: Cell signaling CRE-BLA (Fsk stim)
Settings: CHO CRE-bla reporter (cAMP response element driving beta-lactamase), forskolin EC10, beta-lactamase ratio; measured here: 460 nm blue channel
How it was run: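 CHO CRE-bla cells, overnight plating in Opti-MEM with 0.5% dialyzed FBS; cpd titration + EC10 NKH 477, 3 h 37 °C; CCF4 2 h RT; ex 405/em 460 vs 530 ratio → %Activity, AC50.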
For CSc1nc(N)nc(SCC(=O)c2ccccc2)c1C#N, the AC50 was 12.6 µM [rising, partial curve].
For c1ccc(-c2nnc3sc(CN4CCc5ccccc54)cn23)cc1, the AC50 was 12.6 µM [rising, single point].
In the case of COc1ccc(NC(=O)N2CCC3(CC2)CCN(C(=O)c2cnccn2)CC3)cc1, the AC50 is reported as 1.58 µM [falling, full curve, poor fit].
For O=C(Nc1ccccc1)Nc1ccccn1, the AC50 was 3.16 µM [falling, single point].
In the case of O=C(Oc1ccc(OC(=O)c2ccncc2)cc1)c1ccncc1, the AC50 is reported as 0.0126 µM [falling, full curve, poor fit].
For O=C(CN(c1ccc2c(c1)OCCO2)S(=O)(=O)c1ccccc1)Nc1ccc2c(c1)OCO2, the AC50 was 15.8 µM [falling, partial curve].
With CCOC(=O)c1ccc2nc(C(F)(F)F)[nH]c(=O)c2c1 the AC50 was 5.01 µM [rising, single point].
In the case of CC(=O)c1ccc(N2C(=NC(=O)C(C)C)SC3CS(=O)(=O)CC32)cc1 (stereo unspecified), the AC50 is reported as 25.1 µM [rising, single point].
For COCCN1C(=O)c2oc3c(C)cc(C)cc3c(=O)c2C1c1cccc(O)c1 (stereo unspecified), the AC50 was 10 µM [rising, partial curve].
In the case of c1ccc(-n2ncc3c(NCc4cccnc4)ncnc32)cc1, the AC50 is reported as 10 µM [rising, single point].
In the case of CCOCCCn1c(=NC(C)=O)c(C(=O)OCC)cc2c(=O)n3ccccc3nc21, the AC50 is reported as 12.6 µM [rising, partial curve].
In the case of O=C(C1CCC1)N1CCc2cc(S(=O)(=O)NCCN3CCN(c4ccccc4F)CC3)ccc21, the AC50 is reported as 0.251 µM [rising, full curve, poor fit].
With O=C(NCc1ccc(N2CCCC2=O)cc1)c1cn(Cc2ccccc2)nn1 the AC50 was 25.1 µM [rising, single point].
In the case of O=C(CC1Sc2ncnn2C1=O)Nc1ccc(Br)cc1 (stereo unspecified), the AC50 is reported as 12.6 µM [falling, partial curve].
With COc1ccc(OC)c(S(=O)(=O)N2CCC(C(=O)Nc3cccc(C(F)(F)F)c3)CC2)c1 the AC50 was 10 µM [falling, partial curve].
With CC(=O)[C@@H]1[C@@H]2C(=O)N(c3ccc(F)c(Cl)c3)C(=O)[C@@H]2C2c3ccccc3C=CN21 (stereo partly specified) the AC50 was 25.1 µM [rising, single point].
With c1ccc(-c2nc(N3CCCCCC3)c3ccccc3n2)nc1 the AC50 was 2.51 µM [rising, full curve].
For CCCCNC(=O)C(c1ccc(OCC(=O)OC)c(C(=O)OC)c1)N(CCc1ccccn1)C(=O)CCCCCN1C(=O)NC(c2ccc(-c3ccccc3)cc2)C(C(=O)OCc2ccccc2)=C1C (stereo unspecified), the AC50 was 3.16 µM [rising, partial curve].
In the case of CCOC(=O)CNc1c(-c2ccc(O)cc2)nc2ccc(Cl)cn12, the AC50 is reported as 0.1 µM [falling, full curve, poor fit].
In the case of c1coc(-c2nnc(SCc3cn4ccccc4n3)o2)c1, the AC50 is reported as 10 µM [rising, partial curve].
In the case of Cc1cc(-c2ccco2)c(C#N)c2nc3ccccc3n12, the AC50 is reported as 5.01 µM [rising, partial curve].
With COc1ccc(C(=O)N2CCCC(c3nc(-c4cc(OC)c(OC)c(OC)c4)no3)C2)cc1 (stereo unspecified) the AC50 was 12.6 µM [rising, partial curve].
For CN(CC(=O)N1CCN(c2ccccc2)CC1)S(=O)(=O)c1cnc[nH]1, the AC50 was 0.1 µM [falling, full curve].
In the case of O=C(NCc1ccc2c(c1)OCO2)c1ccc(COc2cccc(Cl)c2)o1, the AC50 is reported as 12.6 µM [falling, single point].
For CCCCCCC1C(C#N)=C(N)OC2=C1C(=O)CC(C)(C)C2 (stereo unspecified), the AC50 was 12.6 µM [rising, partial curve].
In the case of O=C(c1ccco1)N1CCN(C(=O)c2ccc(Cn3cc(Br)cn3)o2)CC1, the AC50 is reported as 0.02 µM [rising, full curve, poor fit].
In the case of CCCN1Cc2cccc(C(=O)NC3CCCC3)c2C1=O, the AC50 is reported as 3.98 µM [falling, single point].
In the case of O=c1cnc2cnc(OCc3ccccc3)nc2n1Cc1ccc(F)cc1, the AC50 is reported as 12.6 µM [rising, single point].
In the case of CCc1ccccc1NS(=O)(=O)c1ccc2[nH]cc(C(=O)NCC3CCCO3)c(=O)c2c1 (stereo unspecified), the AC50 is reported as 31.6 µM [falling, partial curve, poor fit].
With COc1cc(-c2nc(-c3cccc(C)c3)no2)cc(OC)c1OC the AC50 was 0.794 µM [rising, full curve].
With COc1cc2c(cc1OC)CN(C(=O)c1ccccc1C(=O)O)CC2 the AC50 was 12.6 µM [falling, partial curve].
With O=C(Cn1ccc2ccccc2c1=O)NCCC(=O)N1CCN(C(=O)c2ccco2)CC1 the AC50 was 25.1 µM [falling, single point].
With COc1ccc(OC)c(-c2cc(C(=O)N3CCCc4ccccc43)no2)c1 the AC50 was 10 µM [rising, partial curve].
For COc1ccc(-c2cnnn2-c2ccc(NC(=O)c3ccco3)cc2)cc1OC, the AC50 was 10 µM [rising, partial curve].
With Cc1ccc(S(=O)(=O)NCC2CCC(C(=O)NCCCN3CCOCC3)CC2)cc1 (stereo unspecified) the AC50 was 0.00398 µM [falling, full curve, poor fit].
In the case of Cc1[nH]nc2c1-c1nc3ccccc3nc1C(C)(C)C2, the AC50 is reported as 0.316 µM [rising, partial curve, poor fit].
With C=CCn1c(N)c(S(=O)(=O)c2cccs2)c2nc3ccccc3nc21 the AC50 was 12.6 µM [rising, partial curve].
In the case of O=C(Nc1cccc(NC(=O)N2CCN(c3ccccc3)CC2)c1)N1CCN(c2ccccc2)CC1, the AC50 is reported as 12.6 µM [falling, single point].
For Cn1c(=O)oc2cc(S(=O)(=O)N3CCCC(C(=O)N4CC=C(c5ccccc5)CC4)C3)ccc21 (stereo unspecified), the AC50 was 10 µM [falling, single point].
For O=C(CNS(=O)(=O)c1ccc(Br)s1)N1CCN(c2ncccn2)CC1, the AC50 was 0.1 µM [falling, single point].
In the case of CN1[C@@H]2CC[C@H]1CC(OC(c1ccccc1)c1ccccc1)C2 (stereo partly specified), the AC50 is reported as 0.0251 µM [rising, full curve, poor fit].
